PubChem BioAssay AID504764 – Drosophila RNAi Screening Center, 2011

Test: 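Genes whose knock-down alters Notch-dependent transcription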 (primary screen)
Cell system: Drosophila Kc167 cells
Knock-down reagent: long dsRNA against Drosophila genes
Timing: about 5 days (4 days dsRNA, then 24 h after transfection)
Conditions: transfection of constitutively active membrane-tethered Notch lacking the extracellular domain, read 24 h later
Measured: 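Firefly luciferase from an E(spl)m3 reporter with active Notch, plus control-promoter and uninduced reporter wells for normalisation; unnormalised counts, duplicate wells a and b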
Reading the numbers: induced reporter light, run 1, well a and induced reporter light, run 1, well b: higher = more light from the Notch target reporter with active Notch; control promoter light, run 1, well a and control promoter light, run 1, well b: higher = more light from the viral control promoter (cell number, transfection, viability); uninduced reporter light, run 1, well a: higher = more light from the Notch target reporter without active Notch
Hit rule: 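Hit if the duplicate-averaged log2 ratio of induced to control-promoter light gives a plate-wise z beyond ±2, or induced to uninduced beyond ±1.8; weak-control or discordant-duplicate wells dropped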
Calls: active = modifier hit (raised or lowered Notch signal); inactive = not a hit
The deposit covers about 22,000 reagents; below is an unselected part of those that have a named target and a result. Of all reagents, 403 (1.9%) were called active. 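Unnormalised raw counts per well; ratio z-scores behind the hit calls and whether each hit raises or lowers signal are not deposited.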 Not stated in the record: the amount of reagent.

gene knocked down | DRSC id | induced reporter light, run 1, well a | induced reporter light, run 1, well b | control promoter light, run 1, well a | control promoter light, run 1, well b | uninduced reporter light, run 1, well a | call
CG13605 | DRSC14608 | 1.94e5 | 1.63e5 | 2.59e5 | 2.45e5 | 14665 | inactive
CG13428 | DRSC06390 | 1.19e5 | 77360 | 1.15e5 | 1.19e5 | 6035 | inactive
CG15256 | DRSC01940 | 1.38e5 | 1.49e5 | 1.35e5 | 1.36e5 | 11020 | inactive
ndl (nudel) | DRSC11374 | 2.08e5 | 2.12e5 | 2.48e5 | 2.57e5 | 10750 | inactive
CG7646 | DRSC11232 | 1.17e5 | 90080 | 1.47e5 | 1.45e5 | 8810 | inactive
Nup107 (Nucleoporin 107kD) | DRSC01999 | 65945 | 75960 | 54575 | 65330 | 9370 | inactive
CG8519 | DRSC10985 | 2.96e5 | 2.25e5 | 3.33e5 | 3.17e5 | 14690 | inactive
CG5194 | DRSC10492 | 1.46e5 | 1.51e5 | 84195 | 37660 | 11795 | inactive
CG13510 | DRSC04152 | 1.93e5 | 1.86e5 | 1.51e5 | 1.67e5 | 13550 | inactive
CG2082 | DRSC12125 | 1.48e5 | 1.45e5 | 92320 | 82060 | 9355 | inactive
CG3955 | DRSC06859 | 1.71e5 | 1.31e5 | 1.15e5 | 1.30e5 | 10810 | inactive
Spc25 | DRSC14164 | 2.31e5 | 2.41e5 | 1.97e5 | 2.14e5 | 17400 | inactive
Uxs (UDP-xylose synthase) | DRSC10941 | 63130 | 46130 | 40735 | 21032 | 5145 | inactive
CG5180 | DRSC15731 | 1.97e5 | 1.94e5 | 1.99e5 | 2.12e5 | 15160 | inactive
CG14974 | DRSC08433 | 1.26e5 | 1.27e5 | 1.48e5 | 1.22e5 | 5030 | inactive
Rga (Regena) | DRSC12364 | 91570 | 1.14e5 | 87730 | 73715 | 6520 | inactive
Acox57D-d (acyl-Coenzyme A oxidase at 57D distal) | DRSC04561 | 1.13e5 | 95210 | 75195 | 67300 | 6740 | inactive
Blm (Bloom syndrome helicase) | DRSC16911 | 2.19e5 | 1.48e5 | 1.23e5 | 1.54e5 | 11480 | inactive

Part of the list above, reformatted.
| gene knocked down | DRSC id | induced reporter light, run 1, well a | induced reporter light, run 1, well b | control promoter light, run 1, well a | control promoter light, run 1, well b | uninduced reporter light, run 1, well a | call |
| --- | --- | --- | --- | --- | --- | --- | --- |
| Nup107 (Nucleoporin 107kD) | DRSC01999 | 65945 | 75960 | 54575 | 65330 | 9370 | inactive |
| CG8519 | DRSC10985 | 2.96e5 | 2.25e5 | 3.33e5 | 3.17e5 | 14690 | inactive |
| CG5194 | DRSC10492 | 1.46e5 | 1.51e5 | 84195 | 37660 | 11795 | inactive |

Next entries:
gene knocked down | DRSC id | induced reporter light, run 1, well a | induced reporter light, run 1, well b | control promoter light, run 1, well a | control promoter light, run 1, well b | uninduced reporter light, run 1, well a | call
Gbeta13F (G protein beta subunit 13F) | DRSC20247 | 1.48e5 | 1.67e5 | 2.39e5 | 2.55e5 | 11750 | inactive
betaTub85D (beta-Tubulin at 85D) | DRSC16910 | 70280 | 81810 | 77950 | 59125 | 3420 | inactive
Spn42Db (Serpin 42Db) | DRSC05009 | 2.90e5 | 2.35e5 | 2.56e5 | 2.59e5 | 22600 | inactive
Dnali1 (Dynein axonemal light intermediate chain 1) | DRSC16158 | 1.51e5 | 1.41e5 | 92425 | 84170 | 10440 | inactive
vex (vexed) | DRSC19481 | 1.43e5 | 1.40e5 | 3.37e5 | 3.08e5 | 10225 | inactive
vex (vexed) | DRSC19651 | 1.45e5 | 1.30e5 | 2.57e5 | 2.71e5 | 8200 | inactive
vex (vexed) | DRSC21843 | – | – | – | – | – | inactive
arx (asterix) | DRSC10386 | 1.45e5 | 1.14e5 | 69615 | 85915 | 9440 | inactive
Mkk4 (MAP kinase kinase 4) | DRSC16739 | 1.17e5 | 1.14e5 | 1.02e5 | 1.05e5 | 7465 | inactive
Utx (Utx histone demethylase) | DRSC02872 | 98835 | 1.24e5 | 58935 | 77135 | 12750 | inactive
Atg17 (Autophagy-related 17) | DRSC12221 | 1.11e5 | 84820 | 68605 | 79130 | 6065 | inactive
CG12929 | DRSC06242 | 1.58e5 | 2.11e5 | 2.19e5 | 1.86e5 | 16135 | inactive
CG8202 | DRSC16396 | 80590 | 87590 | 53305 | 48355 | 5170 | inactive
MICU3 (Mitochondrial calcium uptake 3) | DRSC13381 | 54985 | 62055 | 76330 | 61425 | 8620 | inactive
MICU3 (Mitochondrial calcium uptake 3) | DRSC15613 | 1.38e5 | 1.41e5 | 1.56e5 | 2.16e5 | 16020 | inactive
CG15473 | DRSC18056 | 85665 | 1.03e5 | 1.26e5 | 1.63e5 | 5995 | inactive
